Results on 2 sequences are retold here after article doi:10.1101/2024.06.03.597204.

Where two headings read alike, the source gives them in different places. The exact form of at least one protein or probe is not confirmed. For some of these results: A negative result means that nothing was seen under these conditions.

What all share (assay): EMSA
A general note: A gel shift assay detects complexes by their altered migration in electrophoresis.

Series [1] concerns His6-S-HsfB2a.
The subject of series [2] is His6-S-HsfB1.
For series [3], the target named is GST-S-HsfA2 (UniProt J7G1E7).

With “GAAGAAGGAAGAAGGAAGAAG (double strand) [3xHRE probe]”, the binding result in series [1] is reported as “no binding”; in series [2], “binds”; in series [3] (weakened by unlabelled HRE competitor), “binds”.

As for “TCCTCCTTCCTCCTTCCTCCT (double strand) [3xmHRE probe]”, the binding result in series [3] is “no binding”.
